No constants are given. Whether binding was seen depends on the method and setting. Binding seen in cells or lysates may run through a third protein. These calls come from enrichment with a bait or labelling near it, and not all partners need be listed. Tags and fused reporters may be left off the sequences shown.

The results in this text go back to article PMC12766987.

This experiment concerns the target T1, Flag-tagged Calhm6 (OE-Calhm6 cells) (UniProt Q8C9E8).
T1 sequence: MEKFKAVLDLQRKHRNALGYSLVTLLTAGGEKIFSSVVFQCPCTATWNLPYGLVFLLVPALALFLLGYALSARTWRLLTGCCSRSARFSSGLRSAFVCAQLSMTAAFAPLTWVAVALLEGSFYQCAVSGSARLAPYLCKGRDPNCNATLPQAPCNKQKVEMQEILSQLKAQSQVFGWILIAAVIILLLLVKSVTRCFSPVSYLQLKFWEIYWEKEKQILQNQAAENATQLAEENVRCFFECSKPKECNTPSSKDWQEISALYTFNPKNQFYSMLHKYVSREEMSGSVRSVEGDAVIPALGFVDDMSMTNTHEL
Nature of the experiment: affinity purification with mass spectrometry; lysates of OE-Calhm6 RAW264.7 cells, untreated or treated with IL-4 (20 ng/mL) or CaCl2 (2 mM); Flag-tagged Calhm6 precipitated with anti-Flag beads, precipitates analysed by mass spectrometry.

B1: Chp1 (calcineurin B homologous protein 1), endogenous in RAW264.7 (protein, UniProt P61022 1-195)
chain: MGSRASTLLRDEELEEIKKETGFSHSQITRLYSRFTSLDKGENGTLSREDFQRIPELAINPLGDRIINAFFSEGEDQVNFRGFMRTLAHFRPIEDNEKSKDVNGPEPLNSRSNKLHFAFRLYDLDKDDKISRDELLQVLRMMVGVNISDEQLGSIADRTIQEADQDGDSAISFTEFVKVLEKVDVEQKMSIRFLH
In the case of B1, the binding entry is given as “binds”.

B2: CaMK4 (Calcium/calmodulin-dependent protein kinase IV), endogenous in RAW264.7 (protein, UniProt P08414 1-469)
chain: MLKVTVPSCPSSPCSSVTASTENLVPDYWIDGSNRDPLGDFFEVESELGRGATSIVYRCKQKGTQKPYALKVLKKTVDKKIVRTEIGVLLRLSHPNIIKLKEIFETPTEISLVLELVTGGELFDRIVEKGYYSERDARDAVKQILEAVAYLHENGIVHRDLKPENLLYATPAPDAPLKIADFGLSKIVEHQVLMKTVCGTPGYCAPEILRGCAYGPEVDMWSVGIITYILLCGFEPFYDERGDQFMFRRILNCEYYFISPWWDEVSLNAKDLVKKLIVLDPKKRLTTFQALQHPWVTGKAANFVHMDTAQKKLQEFNARRKLKAAVKAVVASSRLGSASSSHTSIQENHKASSDPPSTQDAKDSTDLLGKKMQEEDQEEDQVEAEASADEMRKLQSEEVEKDAGVKEEETSSMVPQDPEDELETDDPEMKRDSEEKLKSVEEEMDPMTEEEAPDAGLGVPQQDAIQPEY
B2: the binding result is “binds”.
